PubChem BioAssay AID1259254, NCATS, 2017

- Purpose: 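Genome-wide screen for genes that prevent DNA re-replication in cancer cells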 (primary screen)
- Cell system: human HCT116 colorectal cancer cells
- Reagents: single siRNA against human genes
- Time to read-out: 3 days
- Measured: 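Nuclei stained with Hoechst and imaged; cell-cycle phase assigned by DNA content; G2 share scaled per plate, non-targeting siRNA 0%, GMNN siRNA 100%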
- Scale: G2 robust z-score: higher = more G2 cells, more excess DNA replication
- Call rule: 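An siRNA counts as active if its G2 robust z-score lies at least 5 MADs above the screen median; here such calls match roughly 38% of GMNN control or more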
The deposit covers about 59,000 reagents; this is an unselected part. About 1,550 of all reagents (2.6%) count as active. 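G2 share is only a proxy for re-replication; each gene was hit by three separate siRNAs, and active genes were retested.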 The numbers tell different reagents against one gene apart. Further read-outs or replicates are left out here. The record does not give: the amount of reagent.

Depletion of WIF1 #1 gave: G2 robust z-score -0.783; inactive. Knock-down of WIF1 #2 came out at: G2 robust z-score -0.676; inactive. Depletion of WIF1 #3 came out at: G2 robust z-score -0.309; inactive. Depletion of DNAAF1 #1 resulted in: G2 robust z-score 0.224; inactive. DNAAF1 #2 scored G2 robust z-score -0.725; inactive. DNAAF1 #3 showed G2 robust z-score 0.0936; inactive.

For RXRG #1, the entry reads G2 robust z-score -0.448; inactive. RXRG #2 scored G2 robust z-score 8.65; active. Against RXRG #3, the entry reads G2 robust z-score -0.432; inactive. ROCK2 #1 gave G2 robust z-score -0.531; inactive. ROCK2 #2 gave G2 robust z-score -1; inactive. Depletion of ROCK2 #3 resulted in: G2 robust z-score -1.44; inactive.

For CREG1 #1, the values are G2 robust z-score -0.211; inactive. After knock-down of CREG1 #2, the screen gave G2 robust z-score 1.12; inactive. After knock-down of CREG1 #3, the record shows G2 robust z-score -1.05; inactive. Against MIR3171HG #1 the deposit lists G2 robust z-score 0.628; inactive. Silencing of MIR3171HG #2 resulted in: G2 robust z-score -0.302; inactive. MIR3171HG #3 gave G2 robust z-score 0.447; inactive.

After knock-down of ANGPTL3 #1, the screen gave G2 robust z-score 0.485; inactive. For ANGPTL3 #2, the values are G2 robust z-score -0.387; inactive. Silencing of ANGPTL3 #3 resulted in: G2 robust z-score -0.748; inactive. IRF7 #1 showed G2 robust z-score 0.24; inactive. For IRF7 #2, the values are G2 robust z-score 0.718; inactive. IRF7 #3 scored G2 robust z-score 1.73; inactive.

2 successive entries from above:
ROCK2 #1 → G2 robust z-score = -0.531; activity call = inactive
ROCK2 #2 → G2 robust z-score = -1; activity call = inactive
